# Measurements as given in PubChem BioAssay (EPA / NIEHS).
# Protein sequences, listed by entry. Tags and fused reporters are not part of them. Lines headed by an entry give the natural chain unless they say otherwise; changes in a name come on top.
# UniProt Q9UNQ0: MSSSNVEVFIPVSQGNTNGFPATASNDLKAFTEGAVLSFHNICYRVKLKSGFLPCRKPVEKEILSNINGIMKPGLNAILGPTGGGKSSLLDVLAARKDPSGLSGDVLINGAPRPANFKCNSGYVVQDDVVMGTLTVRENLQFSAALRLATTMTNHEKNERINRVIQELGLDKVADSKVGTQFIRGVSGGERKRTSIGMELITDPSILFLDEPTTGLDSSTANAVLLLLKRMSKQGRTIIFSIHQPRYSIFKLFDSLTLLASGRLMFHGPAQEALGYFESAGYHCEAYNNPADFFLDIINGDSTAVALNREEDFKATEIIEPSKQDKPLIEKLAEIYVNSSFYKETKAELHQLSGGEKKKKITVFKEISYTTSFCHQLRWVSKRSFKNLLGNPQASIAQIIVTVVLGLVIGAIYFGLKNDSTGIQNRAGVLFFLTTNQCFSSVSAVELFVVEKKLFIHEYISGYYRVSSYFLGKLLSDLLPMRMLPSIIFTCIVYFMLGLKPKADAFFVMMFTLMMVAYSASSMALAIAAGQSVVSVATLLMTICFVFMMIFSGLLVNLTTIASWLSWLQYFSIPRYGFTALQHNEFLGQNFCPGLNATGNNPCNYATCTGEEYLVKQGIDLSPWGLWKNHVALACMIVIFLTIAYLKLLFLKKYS
# Inconclusive means that the source gave no clear call. Such entries were picked first, then a sample of the others. For part of these data: Potencies of inconclusive entries are doubtful fits and often do not repeat. Activity calls are given as the source filed them. The calls were made as follows: active = hit-call score of the fitted dose curve at least 0.9, where 1 is the maximum; inconclusive = response in the unintended direction; inactive = score below 0.9.
# Key:
# [1] = Tanguay_ZF_120hpf_BRAI_legacy: (Legacy) Oregon State University Tanguay Lab 120 Hour Post-fertilization zebrafish Assay for Brain Malformation (AID 2283641)
# Procedure, shortened: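 Read-out: binary brain morphology call at 120 hpf (brightfield), fitted in gain-of-signal direction vs DMSO. Wild-type Tropical 5D embryos, static exposure, 28C, 0.64% DMSO final; 5uM trimethyltin chloride as positive control.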
# [2] = Tanguay_ZF_120hpf_CFIN_legacy: (Legacy) Oregon State University Tanguay Lab 120 Hour Post-fertilization zebrafish Assay for Caudal Fin Malformation (AID 2283649)
# Procedure, shortened: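 Dechorionated 5D wild-type zebrafish, static exposure 6–120 hpf, 28C, sealed and dark, 0.64% v/v DMSO final. Binary fin-malformation call at 120 hpf, brightfield; gain of signal vs DMSO baseline.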
# [3] = Tanguay_ZF_120hpf_CIRC_legacy: (Legacy) Oregon State University Tanguay Lab 120 Hour Post-fertilization zebrafish Assay for Circulatory Malformation (AID 2283651)
# Procedure, shortened: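 Dechorionated wild-type 5D zebrafish embryos, one per well, statically exposed from 6 to 120 hpf at 28C with 0.64% DMSO; circulatory malformation scored present/absent by brightfield microscopy at 120 hpf, dead embryos excluded.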
# [4] = Tanguay_ZF_120hpf_NC_legacy: (Legacy) Oregon State University Tanguay Lab 120 Hour Post-fertilization zebrafish Assay for Notochord and Tail Malformation (AID 2283656)
# Procedure, shortened: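 Dechorionated Tropical 5D wild-type zebrafish embryos, one per well from 6 hpf, statically exposed to 120 hpf at 28C in 0.64% DMSO final. Notochord distortion scored present/absent by brightfield; dead embryos excluded.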
# [5] = Tanguay_ZF_120hpf_PIG_legacy: (Legacy) Oregon State University Tanguay Lab 120 Hour Post-fertilization zebrafish Assay for Pigmentation Malformation (AID 2283650)
# Procedure, shortened: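 Pronase dechorionation at 4 hpf; embryos plated at 6 hpf, one per well; static exposure, sealed and foil-covered, 28C, to 120 hpf; pigmentation read by brightfield, binary; DMSO 0.64% baseline, 5uM trimethyltin chloride positive control.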
# [6] = Tanguay_ZF_120hpf_SOMI_legacy: (Legacy) Oregon State University Tanguay Lab 120 Hour Post-fertilization zebrafish Assay for Somite Malformation (AID 2283647)
# Procedure, shortened: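 Binary brightfield scoring of somite defects at 120 hpf in 5D wild-type larvae; one dechorionated embryo per well, static exposure from 6 hpf, 28C, sealed and dark. Final DMSO 0.64%; trimethyltin chloride 5uM positive control.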
# [7] = Tanguay_ZF_120hpf_PFIN_legacy: (Legacy) Oregon State University Tanguay Lab 120 Hour Post-fertilization zebrafish Assay for Pectoral Fin Malformation (AID 2283648);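 also: each larva judged yes or no for fin defect by brightfield with dead larvae skipped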
# Procedure, shortened: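 5D WT zebrafish; pronase dechorionation 4 hpf; 1 embryo/well at 6 hpf; static exposure to 120 hpf, 28C, sealed, foil-covered; final DMSO 0.64% v/v; 5 uM trimethyltin chloride positive control; fin defect scored yes/no.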
# [8] = Tanguay_ZF_120hpf_SWIM_legacy: (Legacy) Oregon State University Tanguay Lab 120 Hour Post-fertilization zebrafish Assay for Swim Bladder Malformation (AID 2283654);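 also: swim bladder malformation in each larva scored yes or no under brightfield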
# Procedure, shortened: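 Embryos lacking chorions were exposed individually and statically to test chemical from 6 to 120 hpf at 28C, with 0.64% DMSO as vehicle. At 120 hpf, swim bladder malformation was recorded as present or absent by brightfield microscopy.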
# [9] = Tanguay_ZF_120hpf_TRUN_legacy: (Legacy) Oregon State University Tanguay Lab 120 Hour Post-fertilization zebrafish Assay for Truncated Body (AID 2283655)
# Procedure, shortened: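 Whole-embryo zebrafish screen: dechorionated 5D embryos, static exposure 6–120 hpf, 28C, sealed foil-covered plates, 0.64% DMSO. Binary truncation call; gain of signal versus DMSO baseline.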
# [10] = read-out: Broad substrate specificity ATP-binding cassette transporter ABCG2 (Homo sapiens) (UniProt Q9UNQ0); assay: CLD_ABCG2_6hr: CellzDirect (CLD) Gene Expression Assay for ABC Transporter (ABCG2) at 6 hours (AID 2283660)
# Procedure, shortened: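 Primary human hepatocytes dosed daily with chemicals at multiple concentrations (0.2% DMSO vehicle), harvested 6 h after dosing. ABCG2 mRNA induction read by quantitative nuclease protection assay (qNPA) chemiluminescence; gain of signal fitted against DMSO baseline.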
# [11] = read-out: xenobiotic metabolism (CYP1A1), CYP1A1 (gene 1543); assay: CLD_CYP1A1_6hr: CellzDirect (CLD) Gene Expression Assay for xenobiotic metabolism (CYP1A1) at 6 hours (AID 2283661);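 also: potency for transcript induction above DMSO vehicle baseline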
# Procedure, shortened: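 Primary human hepatocytes from two donors, compound versus 0.2% DMSO vehicle. CYP1A1 mRNA measured 6 h after dosing by quantitative nuclease protection assay with chemiluminescent read-out; induction fitted relative to DMSO, cytotoxicity flagged by microscopy.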
# [12] = read-out: xenobiotic metabolism (CYP1A2), CYP1A2 (gene 1544); assay: CLD_CYP1A2_6hr: CellzDirect (CLD) Gene Expression Assay for xenobiotic metabolism (CYP1A2) at 6 hours (AID 2283663);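 also: potency is for induction meaning a rise in mRNA above DMSO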
# Procedure, shortened: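 Primary human hepatocytes from two donor preparations, dosed daily with multiple concentrations in 0.2% DMSO and harvested at 6 h. CYP1A2 mRNA induction measured by chemiluminescent qNPA, gain of signal fitted against DMSO; cytotoxicity flagged morphologically.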
# [13] = read-out: xenobiotic metabolism (CYP2C9), CYP2C9 (gene 1559); assay: CLD_CYP2C9_6hr: CellzDirect (CLD) Gene Expression Assay for xenobiotic metabolism (CYP2C9) at 6 hours (AID 2283664)
# Procedure, shortened: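 Primary human hepatocytes dosed daily with test chemicals at multiple concentrations; harvested at 6 h. CYP2C9 mRNA induction measured by qNPA chemiluminescence. Gain of signal fitted against 0.2% DMSO vehicle; cytotoxicity annotated from phase-contrast morphology.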
# [14] = Tanguay_ZF_120hpf_TR_legacy: (Legacy) Oregon State University Tanguay Lab 120 Hour Post-fertilization zebrafish Assay for Touch Response (AID 2283667)
# Procedure, shortened: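 5D WT embryos; static exposure to 120 hpf, 28C, sealed/dark; DMSO 0.64% v/v final. TR scored present/absent; dead embryos excluded. Pos ctrl 5uM trimethyltin chloride.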
# [15] = read-out: organic anion transporter (SLCO1B1), SLCO1B1 (gene 10599); assay: CLD_SLCO1B1_6hr: CellzDirect (CLD) Gene Expression Assay for organic anion transporter (SLCO1B1) at 6 hours (AID 2283668);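 also: active means mRNA induction above DMSO baseline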
# Procedure, shortened: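 Primary human hepatocytes dosed daily with test chemicals (multiple concentrations) in 0.2% DMSO vehicle; harvested at 6 h. SLCO1B1 mRNA quantified by qNPA chemiluminescence, fitted as gain-of-signal versus DMSO; cytotoxicity from phase-contrast morphology flagged alongside.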
structure (smiles),measurement,setting,value
Nc1cccc(N)c1,AC50,[1],inconclusive: 124 µM
same,AC50,[2],inconclusive: 6.25 µM
same,AC50,[3],inconclusive: 26.5 µM
same,AC50,[4],inconclusive: 33.1 µM
O=C1c2ccccc2C(=O)N1CCc1noc(-c2ccc(CN3CCCCCC3)s2)n1,outcome,[1],inactive
same,outcome,[5],inactive
Cn1c(=O)cc(Oc2ccc(F)cc2F)c2cnc(NCC(C)(C)O)nc21,outcome,[6],inactive
OCc1ccccc1,outcome,[1],inactive
same,outcome,[5],inactive
same,outcome,[3],inactive
same,outcome,[4],inactive
OC1CCCCC1,outcome,[6],inactive
same,outcome,[2],inactive
same,outcome,[5],inactive
same,AC50,[3],inconclusive: 25.9 µM
CCCCCCCCCCCCc1ccccc1S(=O)(=O)O,AC50,[1],inconclusive: 64.8 µM
same,AC50,[5],inconclusive: 67.5 µM
CCCCC(CC)CO (centres undefined),AC50,[6],inconclusive: 1.78 µM
same,outcome,[2],inactive
same,AC50,[5],inconclusive: 3.99 µM
same,AC50,[4],inconclusive: 35.5 µM
CNCc1ccc(NC(=O)c2c[nH]c3c2C(=O)CCC3)cc1,outcome,[1],inactive
same,outcome,[3],inactive
O=NO,AC50,[1],inconclusive: 5.66 µM
same,AC50,[7],inconclusive: 111 µM
same,outcome,[2],inactive
same,AC50,[8],inconclusive: 202 µM
same,AC50,[9],inconclusive: 2.03 µM
Cc1ccc2oc(CN(Cc3ccccc3)C(=O)Nc3c(F)cc(F)cc3F)c(-c3ccc(Cl)cc3)c2c1,AC50,[7],inconclusive: 2.23 µM
same,AC50,[8],inconclusive: 177 µM
Cc1ccc([N+](=O)[O-])cc1N,outcome,[7],inactive
same,outcome,[5],inactive
O=C(Nc1ccc([N+](=O)[O-])cc1Cl)c1cc(Cl)ccc1O,AC50,[6],inconclusive: 16.8 µM
same,outcome,[10],inactive
same,AC50,[11],active: 0.218 µM
same,AC50,[12],active: 0.163 µM
same,AC50,[13],inconclusive: 20 µM
same,AC50,[14],inconclusive: 0.00701 µM
same,outcome,[15],inactive

# Reformatted tab-delimited: part of the list above
structure (smiles)	measurement	setting	value
O=C(Nc1ccc([N+](=O)[O-])cc1Cl)c1cc(Cl)ccc1O	AC50	[12]	active: 0.163 µM
same	AC50	[13]	inconclusive: 20 µM
same	AC50	[14]	inconclusive: 0.00701 µM
